PMC5924754
These are yes or no findings as the source states them, for the method shown. Binding seen in cells or lysates may run through a third protein. Some entries that bind do so weakly or less than the wild type.

Protein sequences, listed by entry. Tags and fused reporters are not part of them. Residues count along the entry.
UniProt P46379: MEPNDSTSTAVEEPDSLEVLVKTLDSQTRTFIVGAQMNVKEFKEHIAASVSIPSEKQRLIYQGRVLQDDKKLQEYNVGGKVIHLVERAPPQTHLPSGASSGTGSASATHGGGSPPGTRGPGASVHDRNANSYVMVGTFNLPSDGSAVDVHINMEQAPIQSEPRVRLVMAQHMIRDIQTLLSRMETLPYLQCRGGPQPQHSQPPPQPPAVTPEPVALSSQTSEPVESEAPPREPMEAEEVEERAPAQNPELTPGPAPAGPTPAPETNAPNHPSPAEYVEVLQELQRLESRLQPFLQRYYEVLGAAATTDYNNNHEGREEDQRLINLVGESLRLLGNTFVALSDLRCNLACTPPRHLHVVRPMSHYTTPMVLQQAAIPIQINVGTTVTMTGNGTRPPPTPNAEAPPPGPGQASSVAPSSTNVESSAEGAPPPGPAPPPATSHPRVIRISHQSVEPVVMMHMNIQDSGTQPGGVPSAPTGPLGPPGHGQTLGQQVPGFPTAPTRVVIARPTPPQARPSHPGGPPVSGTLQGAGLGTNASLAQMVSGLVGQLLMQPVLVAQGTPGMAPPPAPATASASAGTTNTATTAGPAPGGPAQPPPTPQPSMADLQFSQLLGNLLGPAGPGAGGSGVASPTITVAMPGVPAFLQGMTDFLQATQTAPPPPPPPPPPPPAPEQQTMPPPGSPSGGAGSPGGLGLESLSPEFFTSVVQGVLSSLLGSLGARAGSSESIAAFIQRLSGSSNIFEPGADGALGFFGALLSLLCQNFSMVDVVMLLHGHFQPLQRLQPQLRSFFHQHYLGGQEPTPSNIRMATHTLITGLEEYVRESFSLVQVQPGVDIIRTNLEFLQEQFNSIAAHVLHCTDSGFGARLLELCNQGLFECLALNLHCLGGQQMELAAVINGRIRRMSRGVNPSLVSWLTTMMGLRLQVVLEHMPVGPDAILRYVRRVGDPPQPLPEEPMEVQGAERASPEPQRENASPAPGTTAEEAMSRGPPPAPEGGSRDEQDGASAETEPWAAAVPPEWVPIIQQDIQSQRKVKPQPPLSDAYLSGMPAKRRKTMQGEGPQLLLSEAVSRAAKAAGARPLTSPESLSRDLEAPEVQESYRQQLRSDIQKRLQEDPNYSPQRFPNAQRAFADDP
UniProt P06239: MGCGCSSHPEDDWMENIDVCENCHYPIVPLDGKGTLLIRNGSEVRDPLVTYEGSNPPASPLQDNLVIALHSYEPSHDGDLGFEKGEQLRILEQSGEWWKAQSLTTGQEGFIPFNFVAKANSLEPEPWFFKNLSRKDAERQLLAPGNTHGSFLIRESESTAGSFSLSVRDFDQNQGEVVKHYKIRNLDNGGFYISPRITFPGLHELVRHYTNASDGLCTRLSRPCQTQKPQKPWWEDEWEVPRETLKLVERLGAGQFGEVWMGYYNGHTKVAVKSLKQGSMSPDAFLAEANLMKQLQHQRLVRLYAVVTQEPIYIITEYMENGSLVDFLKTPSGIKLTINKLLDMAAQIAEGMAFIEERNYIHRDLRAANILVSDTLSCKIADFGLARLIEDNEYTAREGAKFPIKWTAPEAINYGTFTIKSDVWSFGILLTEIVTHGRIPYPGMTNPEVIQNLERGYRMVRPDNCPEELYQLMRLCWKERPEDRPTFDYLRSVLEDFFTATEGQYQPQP
UniProt Q8TDQ0, residues 22-301: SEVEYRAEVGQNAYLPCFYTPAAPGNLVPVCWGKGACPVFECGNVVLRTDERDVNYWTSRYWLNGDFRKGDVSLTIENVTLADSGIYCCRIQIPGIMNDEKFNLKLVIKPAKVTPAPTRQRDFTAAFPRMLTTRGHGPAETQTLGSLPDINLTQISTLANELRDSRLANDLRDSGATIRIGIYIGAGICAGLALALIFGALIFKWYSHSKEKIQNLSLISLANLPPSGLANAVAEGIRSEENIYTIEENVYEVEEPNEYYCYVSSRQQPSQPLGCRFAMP

What was measured:
[1] = molecular target: Bat3 (in Jurkat T cells) (human (endogenous in Jurkat)) (UniProt P46379); test: co-IP; Jurkat T cells transfected with lentiviral particles (Tim-3-HA; without Lnc-Tim3 wild type), treated with anti-TCR/anti-CD28 beads and PMA-ionomycin; Bat3 precipitated, pLck blotted
[2] = molecular target: Bat3 (in Jurkat T cells) (human (endogenous in Jurkat)) (UniProt P46379); test: condition: only in Lnc-Tim3 transfected Jurkat T cells; co-IP; Jurkat T cells transfected with lentiviral particles (Tim-3-HA and Lnc-Tim3 wild type), treated with anti-TCR/anti-CD28 beads and PMA-ionomycin; Bat3 precipitated, pLck blotted
Bat3-Myc = Bat3-Myc (UniProt P46379); test: co-IP; Bat3-Myc and Tim-3-HA overexpressed in HEK 293 T cells; immunoprecipitation and immunoblot

binding [1] | binding [2] | binding (Bat3-Myc) | Substance
binds | no binding |  | catalytically active form of Lck (pTyr394) (from UniProt P06239 1-509) (enzyme)
 |  | binds | Tim-3-HA (wild type T cell immunoglobulin mucin 3) (from UniProt Q8TDQ0 22-301) (receptor)
